According to PubChem BioAssay AID504467 (National Center for Advancing Translational Sciences (NCATS), 2011):
The whole screen tested about 330,000 compounds, of which about 7,700 (2.3%) were called active. This list was built around the results that the source calls inconclusive (neither active nor inactive); the mix of calls is not that of the screen. Calls follow the shape of the dose curve; as a rule, active = well fitted inhibition curve with a large enough effect; inconclusive = small, poorly fitted or top-dose-only effect, or effect the other way; inactive = flat fitted curve, though single readings scatter. Potencies beside an inconclusive call are fits to weak or partial responses and may not hold up.

assay: qHTS screen for small molecules that inhibit ELG1-dependent DNA repair in human embryonic kidney (HEK293T) cells expressing luciferase-tagged ELG1; conditions: HEK293T ELG1-luciferase reporter, luminescence, 16 h, DNA damage induced by 5-fluorouridine; activity change, negative = inhibition: at 46.1 µM (top of the series); also: nearly all actives have a fitted effect of over 55% in size
Procedure, shortened: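 Step one: seed 2,000 cells per well. Step two: pin-transfer compound or DMSO alongside 5-fluorouridine. Step three: incubate 16 hr, 37 °C, 5% CO2. Step four: add ONE-Glo, wait 30 min, read luminescence.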
% is scaled to controls: 0 for no effect and ±100 for the full control effect; potency is read from the fitted curve at half-maximal effect.

SMILES	activity change, negative = inhibition	Potency
CCc1cccc(NC(=O)Cn2cc3c(n2)CCCC3)c1	inactive: -2.57%	–
COc1ccc2nc(NC(=O)CSc3nc(SC)ns3)sc2c1	–	inconclusive: 23.1 µM [activator, partial curve]
CCc1nc2sc3ccccc3c(=O)c2c(=O)n1Cc1ccco1	–	inconclusive: 8.2 µM [activator, partial curve]
c1ccc(Nc2nc(NCc3ccco3)c3ccccc3n2)cc1	–	active: 9.2 µM
COCCNC(=O)Nc1ccc(F)cc1	inactive: 7.45%	–
CCOc1ccc(/C=C/C(O)=C2/C(=O)NC3(C)CC2c2ccccc2O3)cc1OC (stereo not given)	–	inconclusive: 29.1 µM [activator, single point]
COc1cc(/C=C/C(=O)c2ccc(NS(=O)(=O)c3ccc(C)cc3)cc2)cc(OC)c1O	–	active: 10.3 µM
COC(=O)CN1C(=O)Nc2ccc(Br)cc2C1c1ccccc1Cl (stereo not given)	inactive: -2.55%	–
O=C(N/N=C/c1sc(N2CCOCC2)nc1-c1ccccc1)c1cccc(S(=O)(=O)N2CCOCC2)c1	–	active: 4.61 µM
Cc1[nH]nc2c1C(c1cnn(C)c1)C(C#N)=C(N)O2 (stereo not given)	inactive: -12.1%	–
Cc1ccccc1NC(=O)N1CCCN(c2ccc(C#N)cn2)CC1	–	inconclusive: 11.6 µM [inhibitor, partial curve, poor fit]
CCc1ccc(CN(C(=O)COc2c(C)cccc2C)C2CCS(=O)(=O)C2)cc1 (stereo not given)	–	inconclusive: 9.2 µM [activator, partial curve, poor fit]
C[C@H](CO)N1C[C@H](C)[C@@H](CN(C)S(=O)(=O)c2cccs2)Oc2ccc(NS(=O)(=O)c3ccccc3)cc2C1=O	–	active: 9.2 µM
COc1ccc(C(=O)CCC(=O)NC2=NCCS2)cc1	–	inconclusive: 23.1 µM [activator, partial curve, poor fit]
CC(=O)c1ccc(NC(=O)Nc2ccc(Cl)cc2)cc1	–	inconclusive: 18.4 µM [activator, partial curve]
C(=C\c1ccccc1)/C=N/Nc1nc2ccccc2[nH]1	–	inconclusive: 10.3 µM [activator, partial curve]
Cc1ccc(S(=O)(=O)N2[C@@H](c3ccc(C(C)(C)C)cc3)C(C(=O)O)=CC[C@H]2c2ccc(C(C)C)cc2)cc1	–	active: 16.4 µM
O=S(=O)(Nc1ncccn1)c1ccccc1	inactive: 2.87%	–
COc1cc(C(=O)Oc2cccc(C(=S)N3CCOCC3)c2)cc(OC)c1OC	–	inconclusive: 10.3 µM [inhibitor, partial curve]
CC(O)c1nc2ccc(Cc3ccc4nc(C(C)O)[nH]c4c3)cc2[nH]1 (stereo not given)	–	inconclusive: 29.1 µM [activator, single point]
O=C1OCCC1Sc1nnc(-c2ccc(O)cc2)o1 (stereo not given)	inactive: 3.09%	–
CC(=O)NC(C(=O)c1ccccc1)N1CCCCC1 (stereo not given)	–	inconclusive: 15.8 µM [activator, single point]
Cc1cc(C)n(C(=O)c2ccc([N+](=O)[O-])c(Cl)c2)n1	–	inconclusive: 29.1 µM [inhibitor, partial curve, poor fit]
CCOc1ccc(NC(=O)CCS(=O)(=O)c2ccc(C)cc2)cc1	inactive: -7.32%	–

Some of the entries so far, in markdown:

| SMILES | activity change, negative = inhibition | Potency |
| --- | --- | --- |
| CCc1ccc(CN(C(=O)COc2c(C)cccc2C)C2CCS(=O)(=O)C2)cc1 (stereo not given) | – | inconclusive: 9.2 µM [activator, partial curve, poor fit] |
| C[C@H](CO)N1C[C@H](C)[C@@H](CN(C)S(=O)(=O)c2cccs2)Oc2ccc(NS(=O)(=O)c3ccccc3)cc2C1=O | – | active: 9.2 µM |
| COc1ccc(C(=O)CCC(=O)NC2=NCCS2)cc1 | – | inconclusive: 23.1 µM [activator, partial curve, poor fit] |
| CC(=O)c1ccc(NC(=O)Nc2ccc(Cl)cc2)cc1 | – | inconclusive: 18.4 µM [activator, partial curve] |
| C(=C\c1ccccc1)/C=N/Nc1nc2ccccc2[nH]1 | – | inconclusive: 10.3 µM [activator, partial curve] |
| Cc1ccc(S(=O)(=O)N2[C@@H](c3ccc(C(C)(C)C)cc3)C(C(=O)O)=CC[C@H]2c2ccc(C(C)C)cc2)cc1 | – | active: 16.4 µM |
| O=S(=O)(Nc1ncccn1)c1ccccc1 | inactive: 2.87% | – |
| COc1cc(C(=O)Oc2cccc(C(=S)N3CCOCC3)c2)cc(OC)c1OC | – | inconclusive: 10.3 µM [inhibitor, partial curve] |
| CC(O)c1nc2ccc(Cc3ccc4nc(C(C)O)[nH]c4c3)cc2[nH]1 (stereo not given) | – | inconclusive: 29.1 µM [activator, single point] |
| O=C1OCCC1Sc1nnc(-c2ccc(O)cc2)o1 (stereo not given) | inactive: 3.09% | – |
| CC(=O)NC(C(=O)c1ccccc1)N1CCCCC1 (stereo not given) | – | inconclusive: 15.8 µM [activator, single point] |
| Cc1cc(C)n(C(=O)c2ccc([N+](=O)[O-])c(Cl)c2)n1 | – | inconclusive: 29.1 µM [inhibitor, partial curve, poor fit] |
| CCOc1ccc(NC(=O)CCS(=O)(=O)c2ccc(C)cc2)cc1 | inactive: -7.32% | – |

Next part:

SMILES	activity change, negative = inhibition	Potency
CCOc1cc(-c2nc3ccccn3c2NCC2CCCO2)ccc1O (stereo not given)	–	inconclusive: 11.6 µM [inhibitor, partial curve]
COC(=O)c1nc(NC(=S)NC(=O)c2cccs2)sc1C	–	inconclusive: 5.17 µM [activator, full curve]
CC(C)C(NC(=O)C1CCC(C(C)(C)C)CC1)C(=O)NCc1cccnc1 (stereo not given)	–	inconclusive: 18.4 µM [inhibitor, partial curve]
Cc1nc(N)sc1-c1csc(Nc2ccc(S(N)(=O)=O)cc2)n1	–	inconclusive: 11.2 µM [inhibitor, single point]
CC(NC1CCN(Cc2ccccc2)CC1)c1ccc(F)cc1 (stereo not given)	inactive: 3.99%	–
O=C(c1ccc(COc2ccc(Cl)cc2)o1)N1N=C(C(F)F)CC1(O)C(F)F (stereo not given)	–	inconclusive: 29.1 µM [inhibitor, single point]
COc1cccc(NC(=O)c2ccc(-c3ccccc3[N+](=O)[O-])o2)c1	–	inconclusive: 29.1 µM [inhibitor, single point]
O=C(CSc1nnc(-c2ccccc2Br)o1)N1CCOCC1	–	inconclusive: 5.8 µM [activator, partial curve]
O=C(NOCc1ccccc1)c1ccc(Cl)cc1	–	inconclusive: 1.46 µM [activator, full curve, poor fit]
CC1=NN(C(=O)COc2ccc(C)c(C)c2)C(O)(c2ccccc2)C1 (stereo not given)	inactive: 2.59%	–
Cn1cc(C(c2ccccc2OCC(=O)O)c2cn(C)c3ccccc23)c2ccccc21	inactive: -3.44%	–
C=COCCNC(=O)Nc1ccc(Cl)c(Cl)c1	–	inconclusive: 2.91 µM [activator, single point]
CCOc1ccccc1NC(=O)CN1C(=O)NC(Cc2c[nH]c3ccccc23)C1=O (stereo not given)	inactive: 0.638%	–
CCCCn1c(SCC(=O)Nc2nnc(C(C)C)s2)nc2c1c(=O)n(C)c(=O)n2C	–	active: 18.4 µM
O=C(NCc1ccccn1)C(=O)Nc1cc2c3c(c1)CC(=O)N3CCC2	inactive: 0.0175%	–
CC(=O)c1ccccc1C(=O)N1CCCC(CNC(=O)c2ccccc2Cl)C1 (stereo not given)	–	inconclusive: 16.4 µM [activator, single point]
O=C1[C@H]2[C@@H](C3CC3)N3C(=O)CN(Cc4ccccn4)C(=O)[C@@]3(Cc3ccccc3)[C@H]2C(=O)N1c1ccccc1	inactive: 5.4%	–
CCc1sc(C(=O)Nc2cc(S(=O)(=O)N3CCOCC3)ccc2OC)cc1C	–	inconclusive: 20.6 µM [inhibitor, single point]
COc1cc(CCC(=O)Nc2ccc(Cl)c(C(F)(F)F)c2)cc(OC)c1OC	–	inconclusive: 25.9 µM [inhibitor, partial curve, poor fit]
CC1(C)Cc2c(c(N3CCOCC3)nc3sc(C(N)=O)c(N)c23)CO1	–	active: 5.17 µM
NC(=O)c1ccc(Cl)c2ccccc12	–	inconclusive: 4.61 µM [inhibitor, partial curve, poor fit]
CCOc1ccc2ccccc2c1/C=N\NC(=O)c1ccc([N+](=O)[O-])cc1	–	inconclusive: 1.26 µM [activator, single point]
CCOc1ccc(-n2c(-c3ccc(Cl)cc3)c[n+]3c2SCC3)cc1	–	inconclusive: 6.51 µM [inhibitor, partial curve]
COc1cc(-c2nc(-c3cccc(C)c3)no2)cc(OC)c1OC	–	active: 18.4 µM

SMILES	activity change, negative = inhibition	Potency
CCOc1ccc(C(=O)/C=C/c2cc(OC)c(OC)c(OC)c2)cc1	–	inconclusive: 16.4 µM [inhibitor, single point]
Cc1cccc(NC(=O)c2cc(=O)c3ccccc3o2)n1	–	inconclusive: 16.4 µM [activator, partial curve]
NS(=O)(=O)c1ccc(CCNC(=O)COC(=O)COc2cccc(C(F)(F)F)c2)cc1	–	inconclusive: 6.51 µM [activator, partial curve, poor fit]
CC(=O)c1c(C)[nH]c(C(=O)Nc2cccc(C)c2C)c1C	–	inconclusive: 3.66 µM [activator, full curve, poor fit]
COc1ccc(S(=O)(=O)N2CCCCC2)cc1NC(=O)COc1ccccc1	inactive: -17.4%	–
Cc1c(CCOC(=O)c2ccc(Cl)cc2Cl)sc[n+]1CC(=O)c1ccc(Br)cc1	–	inconclusive: 23.1 µM [activator, single point]
O=C(O)CCC(=O)NNc1ncnc2ccccc12	–	inconclusive: 29.1 µM [activator, partial curve, poor fit]
Cc1cccc(OCC(=O)Nc2ccc3c(c2)C(=O)NC3=O)c1	inactive: 3.34%	–
N#C/C=C1\Sc2ccccc2C(=O)N1CC(=O)N1CCN(S(=O)(=O)c2ccccc2)CC1	–	inconclusive: 29.1 µM [activator, single point]
CC(=O)Cn1cnc2c(sc3nc(C)cc(C)c32)c1=O	–	inconclusive: 14.6 µM [activator, partial curve]
O=C(Nc1cc(Sc2nc3ccccc3s2)cc([N+](=O)[O-])c1)c1cccc(F)c1F	–	inconclusive: 18.4 µM [inhibitor, single point]
CC1CCCC(NC(=O)C2CC(=O)N(Cc3ccccc3)C2)C1C (stereo not given)	–	inconclusive: 14.6 µM [activator, single point]
CCCc1[nH]nc2c1C(c1ccc(OC(=O)N3CCOCC3)cc1)C(C#N)=C(N)O2 (stereo not given)	–	inconclusive: 7.31 µM [inhibitor, partial curve]
O=C(NCc1ccccn1)c1cc(-n2cnnc2)ccc1Cl	inactive: -3.19%	–
CCNc1ccc(N=Nc2c(C)n(C)n(-c3ccccc3)c2=O)cc1	–	inconclusive: 13 µM [activator, partial curve]
CCCc1cc(Nc2cccc(OC)c2)n2ncnc2n1	inactive: 12.6%	–
CCn1nc(C)cc1C(=O)Sc1cccc(Br)c1	inactive: 12.9%	–
COc1cccc(CN(C)CC(=O)NC(=O)NCc2ccco2)c1	inactive: 17.6%	–
CCOC(=O)Nc1ccc2c(CN3CCN(S(=O)(=O)c4ccccc4)CC3)cc(=O)oc2c1	–	inconclusive: 2.91 µM [inhibitor, full curve, poor fit]
COc1ccc(OC)c(-c2cc(C(=O)N3CCCc4ccccc43)no2)c1	–	inconclusive: 16.4 µM [inhibitor, single point]
COc1ccc(-c2csc(NC(=O)C3CSC4(C)CCC(=O)N34)n2)c(OC)c1 (stereo not given)	–	inconclusive: 3.26 µM [inhibitor, single point]
Cc1[nH]c2ccccc2c1C(=O)CN1CCN(C/C=C/c2ccccc2)CC1	–	inconclusive: 16.4 µM [inhibitor, partial curve, poor fit]
